The text below walks through data of paper PMC4658663.

Sequences of proteins named here, by UniProt entry; tags and fusion partners are left off. A change or cut given only in a name is not applied to a line headed by its entry. Residues count along the entry.
UniProt Q9HBW0: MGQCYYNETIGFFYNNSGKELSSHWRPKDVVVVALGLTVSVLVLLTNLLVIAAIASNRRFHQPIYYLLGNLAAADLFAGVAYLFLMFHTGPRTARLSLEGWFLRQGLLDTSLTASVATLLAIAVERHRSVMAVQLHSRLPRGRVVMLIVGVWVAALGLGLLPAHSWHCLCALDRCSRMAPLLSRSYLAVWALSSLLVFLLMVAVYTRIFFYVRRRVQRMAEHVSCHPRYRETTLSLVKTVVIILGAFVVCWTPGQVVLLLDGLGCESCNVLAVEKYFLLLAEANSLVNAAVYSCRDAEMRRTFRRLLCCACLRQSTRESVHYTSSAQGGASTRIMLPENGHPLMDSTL
UniProt P35346: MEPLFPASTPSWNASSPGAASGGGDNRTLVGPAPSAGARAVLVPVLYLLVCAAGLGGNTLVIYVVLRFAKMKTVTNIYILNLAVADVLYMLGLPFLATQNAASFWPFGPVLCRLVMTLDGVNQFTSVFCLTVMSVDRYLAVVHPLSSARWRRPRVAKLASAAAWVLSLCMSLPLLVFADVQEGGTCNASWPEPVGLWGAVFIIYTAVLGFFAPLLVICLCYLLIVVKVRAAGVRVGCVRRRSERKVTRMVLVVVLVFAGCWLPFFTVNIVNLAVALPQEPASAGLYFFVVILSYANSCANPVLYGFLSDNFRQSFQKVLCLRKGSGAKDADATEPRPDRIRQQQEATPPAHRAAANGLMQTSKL
UniProt P30872: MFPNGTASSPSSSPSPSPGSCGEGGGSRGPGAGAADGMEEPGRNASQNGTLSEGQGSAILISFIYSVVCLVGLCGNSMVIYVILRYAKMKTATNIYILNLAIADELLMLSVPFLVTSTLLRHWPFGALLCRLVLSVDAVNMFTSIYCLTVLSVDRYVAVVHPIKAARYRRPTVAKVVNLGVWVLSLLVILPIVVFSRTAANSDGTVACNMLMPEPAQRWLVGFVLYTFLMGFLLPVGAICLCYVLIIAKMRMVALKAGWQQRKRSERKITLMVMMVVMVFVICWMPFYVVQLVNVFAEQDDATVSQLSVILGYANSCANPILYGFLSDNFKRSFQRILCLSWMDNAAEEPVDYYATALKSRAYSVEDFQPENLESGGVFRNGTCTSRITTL
UniProt P31391: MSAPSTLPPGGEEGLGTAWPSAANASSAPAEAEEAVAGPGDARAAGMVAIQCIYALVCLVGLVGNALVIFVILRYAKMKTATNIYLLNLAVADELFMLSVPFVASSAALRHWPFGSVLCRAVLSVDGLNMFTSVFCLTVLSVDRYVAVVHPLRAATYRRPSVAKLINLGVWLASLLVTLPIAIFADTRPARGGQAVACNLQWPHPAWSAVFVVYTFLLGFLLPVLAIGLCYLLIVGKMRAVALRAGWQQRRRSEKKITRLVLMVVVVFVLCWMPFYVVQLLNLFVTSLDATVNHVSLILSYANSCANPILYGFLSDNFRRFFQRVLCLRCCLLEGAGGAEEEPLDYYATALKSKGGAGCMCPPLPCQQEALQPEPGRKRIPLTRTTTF
UniProt Q9H244: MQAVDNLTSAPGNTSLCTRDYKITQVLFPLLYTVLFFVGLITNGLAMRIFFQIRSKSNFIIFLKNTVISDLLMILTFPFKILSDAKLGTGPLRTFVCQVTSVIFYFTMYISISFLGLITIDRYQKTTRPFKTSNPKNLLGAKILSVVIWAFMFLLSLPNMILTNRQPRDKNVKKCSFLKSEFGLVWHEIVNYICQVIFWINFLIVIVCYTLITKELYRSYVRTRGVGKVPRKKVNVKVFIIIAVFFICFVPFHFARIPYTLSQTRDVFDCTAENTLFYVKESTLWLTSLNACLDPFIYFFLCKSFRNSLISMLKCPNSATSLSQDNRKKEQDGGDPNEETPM
UniProt P41595: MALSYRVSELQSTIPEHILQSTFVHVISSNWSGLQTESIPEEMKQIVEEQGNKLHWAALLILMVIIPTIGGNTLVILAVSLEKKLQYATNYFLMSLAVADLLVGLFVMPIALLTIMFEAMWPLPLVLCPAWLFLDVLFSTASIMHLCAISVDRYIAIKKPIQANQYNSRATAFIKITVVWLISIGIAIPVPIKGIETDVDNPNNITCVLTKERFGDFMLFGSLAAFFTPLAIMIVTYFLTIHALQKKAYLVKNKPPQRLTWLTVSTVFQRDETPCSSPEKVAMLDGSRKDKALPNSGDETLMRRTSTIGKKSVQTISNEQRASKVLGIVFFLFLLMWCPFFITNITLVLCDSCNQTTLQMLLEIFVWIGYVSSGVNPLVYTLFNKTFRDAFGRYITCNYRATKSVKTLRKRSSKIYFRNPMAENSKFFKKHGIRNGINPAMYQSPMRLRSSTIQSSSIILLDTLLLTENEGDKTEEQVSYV
UniProt P25025: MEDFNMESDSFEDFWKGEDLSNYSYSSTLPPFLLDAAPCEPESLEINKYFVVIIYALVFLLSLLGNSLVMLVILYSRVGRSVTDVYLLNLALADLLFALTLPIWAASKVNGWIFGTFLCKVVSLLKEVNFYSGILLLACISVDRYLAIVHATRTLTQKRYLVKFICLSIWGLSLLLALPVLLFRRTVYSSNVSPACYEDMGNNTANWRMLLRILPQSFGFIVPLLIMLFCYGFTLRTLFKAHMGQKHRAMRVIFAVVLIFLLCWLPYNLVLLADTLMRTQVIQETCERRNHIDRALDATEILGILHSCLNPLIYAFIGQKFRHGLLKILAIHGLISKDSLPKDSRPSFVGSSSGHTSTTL
UniProt P25100: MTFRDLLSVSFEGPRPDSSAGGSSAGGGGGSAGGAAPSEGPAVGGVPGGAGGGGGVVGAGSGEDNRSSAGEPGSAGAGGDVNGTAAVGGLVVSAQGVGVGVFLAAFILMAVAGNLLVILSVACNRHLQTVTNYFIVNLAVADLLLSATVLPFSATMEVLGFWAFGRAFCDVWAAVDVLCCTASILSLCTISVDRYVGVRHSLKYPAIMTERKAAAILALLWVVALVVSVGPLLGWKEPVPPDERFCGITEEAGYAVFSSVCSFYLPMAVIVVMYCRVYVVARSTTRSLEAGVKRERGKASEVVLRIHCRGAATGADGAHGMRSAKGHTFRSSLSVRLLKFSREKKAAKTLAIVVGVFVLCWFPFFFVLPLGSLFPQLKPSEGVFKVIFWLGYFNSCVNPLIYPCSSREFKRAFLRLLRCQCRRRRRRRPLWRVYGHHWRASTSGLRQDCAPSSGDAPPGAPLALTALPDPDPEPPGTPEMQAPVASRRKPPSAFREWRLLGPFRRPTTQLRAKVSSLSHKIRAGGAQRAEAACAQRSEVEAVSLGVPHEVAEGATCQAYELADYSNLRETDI
UniProt Q969V1: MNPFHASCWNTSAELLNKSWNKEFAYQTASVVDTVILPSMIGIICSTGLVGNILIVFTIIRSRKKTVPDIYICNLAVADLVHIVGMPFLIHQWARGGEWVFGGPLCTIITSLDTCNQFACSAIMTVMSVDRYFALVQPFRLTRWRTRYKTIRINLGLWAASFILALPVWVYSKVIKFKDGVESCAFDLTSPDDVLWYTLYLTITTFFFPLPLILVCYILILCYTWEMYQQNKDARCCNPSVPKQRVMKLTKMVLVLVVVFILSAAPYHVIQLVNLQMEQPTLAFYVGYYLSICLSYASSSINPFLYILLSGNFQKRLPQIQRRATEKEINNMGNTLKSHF
UniProt P47900: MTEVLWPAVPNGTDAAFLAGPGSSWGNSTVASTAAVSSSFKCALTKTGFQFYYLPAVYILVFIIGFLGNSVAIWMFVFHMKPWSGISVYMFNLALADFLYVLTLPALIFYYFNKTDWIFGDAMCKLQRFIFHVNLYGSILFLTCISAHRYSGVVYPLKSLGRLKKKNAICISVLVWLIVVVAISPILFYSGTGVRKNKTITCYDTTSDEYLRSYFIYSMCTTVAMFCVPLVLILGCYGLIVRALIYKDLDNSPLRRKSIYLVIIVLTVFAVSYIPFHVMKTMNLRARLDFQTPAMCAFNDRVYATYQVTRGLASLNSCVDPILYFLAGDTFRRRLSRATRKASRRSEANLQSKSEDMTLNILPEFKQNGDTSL
UniProt P49682: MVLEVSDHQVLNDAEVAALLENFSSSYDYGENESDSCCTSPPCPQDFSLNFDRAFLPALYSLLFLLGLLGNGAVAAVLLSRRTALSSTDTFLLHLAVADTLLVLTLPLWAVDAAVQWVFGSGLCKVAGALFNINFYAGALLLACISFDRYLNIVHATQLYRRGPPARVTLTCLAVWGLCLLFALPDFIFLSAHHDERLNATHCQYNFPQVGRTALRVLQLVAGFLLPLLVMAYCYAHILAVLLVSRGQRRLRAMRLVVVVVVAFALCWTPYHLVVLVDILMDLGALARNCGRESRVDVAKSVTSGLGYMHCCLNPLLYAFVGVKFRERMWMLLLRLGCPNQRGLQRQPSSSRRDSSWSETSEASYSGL
UniProt Q9Y5N1: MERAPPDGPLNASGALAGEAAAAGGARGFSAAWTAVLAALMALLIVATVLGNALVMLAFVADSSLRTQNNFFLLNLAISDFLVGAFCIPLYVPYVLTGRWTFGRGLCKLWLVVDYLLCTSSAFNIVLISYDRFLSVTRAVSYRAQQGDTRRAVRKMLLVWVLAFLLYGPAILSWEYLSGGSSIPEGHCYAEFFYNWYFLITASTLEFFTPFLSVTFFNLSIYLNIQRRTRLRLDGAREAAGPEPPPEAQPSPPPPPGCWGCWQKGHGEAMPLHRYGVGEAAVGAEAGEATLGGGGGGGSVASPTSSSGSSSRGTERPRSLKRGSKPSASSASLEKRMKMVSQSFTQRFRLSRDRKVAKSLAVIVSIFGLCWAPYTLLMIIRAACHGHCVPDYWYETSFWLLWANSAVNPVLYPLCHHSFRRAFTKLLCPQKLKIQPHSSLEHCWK
UniProt P30874: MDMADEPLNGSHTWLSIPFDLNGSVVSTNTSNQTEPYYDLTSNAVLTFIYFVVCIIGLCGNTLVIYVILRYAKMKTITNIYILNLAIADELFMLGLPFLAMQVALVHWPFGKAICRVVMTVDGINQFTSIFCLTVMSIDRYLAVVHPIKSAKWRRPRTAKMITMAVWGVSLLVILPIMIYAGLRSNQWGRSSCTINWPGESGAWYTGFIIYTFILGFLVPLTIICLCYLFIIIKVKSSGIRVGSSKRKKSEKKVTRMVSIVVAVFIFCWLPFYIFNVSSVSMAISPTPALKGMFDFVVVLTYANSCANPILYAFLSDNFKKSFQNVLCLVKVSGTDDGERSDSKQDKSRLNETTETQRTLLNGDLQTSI
UniProt P28335, residues 33-458: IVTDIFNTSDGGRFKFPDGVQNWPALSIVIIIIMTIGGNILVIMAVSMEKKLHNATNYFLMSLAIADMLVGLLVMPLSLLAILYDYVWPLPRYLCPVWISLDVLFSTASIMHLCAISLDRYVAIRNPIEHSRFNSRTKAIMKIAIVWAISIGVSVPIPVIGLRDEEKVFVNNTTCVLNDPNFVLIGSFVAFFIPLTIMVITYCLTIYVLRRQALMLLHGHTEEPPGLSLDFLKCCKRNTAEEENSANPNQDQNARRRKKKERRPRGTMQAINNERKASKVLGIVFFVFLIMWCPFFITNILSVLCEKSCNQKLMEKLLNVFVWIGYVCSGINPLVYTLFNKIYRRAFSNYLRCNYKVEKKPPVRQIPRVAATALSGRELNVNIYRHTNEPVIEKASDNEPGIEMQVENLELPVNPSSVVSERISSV

No constants are given. Whether binding was seen depends on the method and setting. Binding seen in cells or lysates may run through a third protein. Here binding means that the protein was enriched with, or labelled near, the bait; the list need not be complete. For some assays here: A no says only that the protein was not detected with the bait. For some assays here: Tags and fused reporters may be left off the sequences shown.

What all share (assay): affinity purification with mass spectrometry; TAP/MS; TAP-tagged bait transfected alone (or with empty vector) in HEK293T cells; TEV cleavage omitted; eluates on Velos-Pro Orbitrap Elite; protein FDR 2.5%
For assay [1], the target named is LPAR2 (lysophosphatidic acid type 2 receptor), TAP-tagged (human) (UniProt Q9HBW0).
Assay [2] concerns the target SSTR5 (somatostatin receptor 5), TAP-tagged (human) (UniProt P35346).
Assay [3] addresses SSTR1 (somatostatin receptor 1), TAP-tagged (human) (UniProt P30872).
For assay [4], the target named is SSTR4 (somatostatin receptor 4), TAP-tagged (human) (UniProt P31391).
Assay [5] has as its target P2RY12 (P2Y purinergic receptor 12), TAP-tagged (human) (UniProt Q9H244).
For assay [6], the target named is HTR2B (5-hydroxytryptamine type 2B receptor), TAP-tagged (human) (UniProt P41595).
The target in assay [7] is CXCR2 (chemokine receptor), TAP-tagged (human) (UniProt P25025).
Assay [8] concerns the target TAP–ADRA1D (human) (UniProt P25100).
The target in assay [9] is MCHR2 (melanin-concentrating hormone type 2 receptor), TAP-tagged (human) (UniProt Q969V1).
For assay [10], the target named is T1, MAS1 (proto-oncogene MAS type I), TAP-tagged (human) (UniProt P04201).
T1 sequence: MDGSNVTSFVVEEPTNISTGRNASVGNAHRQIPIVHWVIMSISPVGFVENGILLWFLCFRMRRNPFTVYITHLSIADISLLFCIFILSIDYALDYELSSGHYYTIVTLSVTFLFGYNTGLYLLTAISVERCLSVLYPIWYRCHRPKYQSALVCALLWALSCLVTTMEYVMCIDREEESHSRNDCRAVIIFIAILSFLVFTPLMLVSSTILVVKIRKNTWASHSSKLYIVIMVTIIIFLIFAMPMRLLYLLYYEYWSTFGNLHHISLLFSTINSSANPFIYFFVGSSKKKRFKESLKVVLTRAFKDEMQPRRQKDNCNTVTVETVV

For assay [11], the target named is T2, GALR1 (galanin type I receptor), TAP-tagged (human) (UniProt P47211).
T2 sequence: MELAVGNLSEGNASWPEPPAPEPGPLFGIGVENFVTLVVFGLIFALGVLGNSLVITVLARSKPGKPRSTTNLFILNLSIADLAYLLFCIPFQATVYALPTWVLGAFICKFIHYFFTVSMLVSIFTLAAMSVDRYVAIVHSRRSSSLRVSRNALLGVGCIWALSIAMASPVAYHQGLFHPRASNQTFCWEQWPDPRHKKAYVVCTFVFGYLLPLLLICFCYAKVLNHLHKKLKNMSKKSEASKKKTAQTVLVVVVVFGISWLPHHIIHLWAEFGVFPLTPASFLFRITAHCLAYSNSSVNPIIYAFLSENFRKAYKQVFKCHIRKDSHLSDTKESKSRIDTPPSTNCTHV

Assay [12] has as its target P2RY1 (P2Y purinergic receptor 1), TAP-tagged (human) (UniProt P47900).
The target in assay [13] is CXCR3 (chemokine receptor), TAP-tagged (human) (UniProt P49682).
In assay [14] the target is HRH3 (histamine type 3 receptor), TAP-tagged (human) (UniProt Q9Y5N1).
Assay [15] has as its target SSTR2 (somatostatin receptor 2), TAP-tagged (human) (UniProt P30874).
Assay [16] addresses HTR2C (5-hydroxytryptamine type 2C receptor), TAP-tagged (human) (UniProt P28335).

B1: α-catulin (CTNNAL1) (protein, UniProt Q9UBT7 1-734)
chain: MAASPGPAGVGGAGAVYGSGSSGFALDSGLEIKTRSVEQTLLPLVSQITTLINHKDNTKKSDKTLQAIQRVGQAVNLAVGRFVKVGEAIANENWDLKEEINIACIEAKQAGETIAALTDITNLNHLESDGQITIFTDKTGVIKAARLLLSSVTKVLLLADRVVIKQIITSRNKVLATMERLEKVNSFQEFVQIFSQFGNEMVEFAHLSGDRQNDLKDEKKKAKMAAARAVLEKCTMMLLTASKTCLRHPNCESAHKNKEGVFDRMKVALDKVIEIVTDCKPNGETDISSISIFTGIKEFKMNIEALRENLYFQSKENLSVTLEVILERMEDFTDSAYTSHEHRERILELSTQARMELQQLISVWIQAQSKKTKSIAEELELSILKISHSLNELKKELHSTATQLAADLLKYHADHVVLKALKLTGVEGNLEALAEYACKLSEQKEQLVETCRLLRHISGTEPLEITCIHAEETFQVTGQQIISAAETLTLHPSSKIAKENLDVFCEAWESQISDMSTLLREINDVFEGRRGEKYGYLSLPKPMKNNANLKSLKPDKPDSEEQAKIAKLGLKLGLLTSDADCEIEKWEDQENEIVQYGRNMSSMAYSLYLFTRGEGPLKTSQDLIHQLEVFAAEGLKLTSSVQAFSKQLKDDDKLMLLLEINKLIPLCHQLQTVTKTSLQNKVFLKVDKCITKTRSMMALLVQLLSLCYKLLKKLQMENNGWVSVTNKDTMDSKT
B1: the binding entry in assay [1], in [2], in assay [3], in assay [4], in assay [5] and in [6] was “no binding” throughout. For the same molecule, the binding entry in [7] is listed as “no binding”; in assay [8], “binds”; in assay [9], “no binding”; in [10], “no binding”; in assay [11] it was “no binding”; in [12], “no binding”. Moreover, the binding result in [13], in assay [14], in [15] and in assay [16] was “no binding” each time.

B2: dystrobrevin-A (DTNA) (protein, UniProt Q9Y4J8 1-743)
chain: MIEDSGKRGNTMAERRQLFAEMRAQDLDRIRLSTYRTACKLRFVQKKCNLHLVDIWNVIEALRENALNNLDPNTELNVSRLEAVLSTIFYQLNKRMPTTHQIHVEQSISLLLNFLLAAFDPEGHGKISVFAVKMALATLCGGKIMDKLRYIFSMISDSSGVMVYGRYDQFLREVLKLPTAVFEGPSFGYTEQSARSCFSQQKKVTLNGFLDTLMSDPPPQCLVWLPLLHRLANVENVFHPVECSYCHSESMMGFRYRCQQCHNYQLCQDCFWRGHAGGSHSNQHQMKEYTSWKSPAKKLTNALSKSLSCASSREPLHPMFPDQPEKPLNLAHIVDTWPPRPVTSMNDTLFSHSVPSSGSPFITRSSPPKDSEVEQNKLLARAAPAFLKGKGIQYSLNVADRLADEHVLIGLYVNMLRNNPSCMLESSNRLDEEHRLIARYAARLAAESSSSQPPQQRSAPDISFTIDANKQQRQLIAELENKNREILQEIQRLRLEHEQASQPTPEKAQQNPTLLAELRLLRQRKDELEQRMSALQESRRELMVQLEGLMKLLKTQGAGSPRSSPSHTISRPIPMPIRSASACSTPTHTPQDSLTGVGGDVQEAFAQSSRRNLRNDLLVAADSITNTMSSLVKELNSEVGSETESNVDSEFARTQFEDLVPSPTSEKAFLAQIHARKPGYIHSGATTSTMRGDMVTEDADPYVQPEDENYENDSVRQLENELQMEEYLKQKLQDEAYQVSLQG
Turning to B2, the binding entry in [1], in assay [2], in [3], in assay [4], in assay [5] and in [6] was “no binding” in each case. Moreover, the binding entry in assay [7] is given as “no binding”; in assay [8], “binds”; in assay [9], “no binding”; in assay [10], “no binding”; in assay [11] it was “no binding”; in assay [12], “no binding”. In addition, the binding entry in assay [13], in assay [14], in assay [15] and in assay [16] was “no binding” in each case.
